Reference: publication PMC1540706
No constants are given. Whether binding was seen depends on the method and setting. In cells and extracts the contact can be indirect. These calls come from enrichment with a bait or labelling near it, and not all partners need be listed.

Protein sequences, listed by entry. Tags and fused reporters are not part of them. Residues count along the entry.
UniProt P63010, residues 700-937: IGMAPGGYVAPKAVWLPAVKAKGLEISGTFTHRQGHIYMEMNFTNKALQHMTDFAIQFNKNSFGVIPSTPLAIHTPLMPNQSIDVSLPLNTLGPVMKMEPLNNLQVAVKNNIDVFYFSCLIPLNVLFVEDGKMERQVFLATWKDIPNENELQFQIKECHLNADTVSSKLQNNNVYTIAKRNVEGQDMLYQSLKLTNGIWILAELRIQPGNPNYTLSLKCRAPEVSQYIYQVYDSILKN

Legend:
[1] = target: GST-human-β2-appendage (700–937) (human) (UniProt P63010); experiment: affinity purification with mass spectrometry; 30–100 μg GST-appendage on glutathione-sepharose beads in HeLa cell extract (150 mM NaCl, 20 mM HEPES pH 7.4, 2 mM DTT, NP40, 0.1% Tx-100), 1 h at 4 °C, 4 washes; Coomassie bands read by LC-MS/MS; only the target purified
[2] = target: GST-mouse-α-appendage (α-earL695–983) (mouse); experiment: as above
[3] = target: GST-mouse-α-appendage (α-earL695–983) (mouse); experiment: affinity purification with mass spectrometry; GST-appendages on beads in rat brain or liver extract (cytosol); LC-MS/MS (Figure S1); only the target purified

| binding [1] | binding [2] | binding [3] | Binder |
| --- | --- | --- | --- |
| binds | binds | – | Scy1-like1 (HeLa) (protein, UniProt Q96KG9-1 1-808) MWFFARDPVRDFPFELIPEPPEGGLPGPWALHRGRKKATGSPVSIFVYDVKPGAEEQTQVAKAAFKRFKTLRHPNILAYIDGLETEKCLHVVTEAVTPLGIYLKARVEAGGLKELEISWGLHQIVKALSFLVNDCSLIHNNVCMAAVFVDRAGEWKLGGLDYMYSAQGNGGGPPRKGIPELEQYDPPELADSSGRVVREKWSADMWRLGCLIWEVFNGPLPRAAALRNPGKIPKTLVPHYCELVGANPKVRPNPARFLQNCRAPGGFMSNRFVETNLFLEEIQIKEPAEKQKFFQELSKSLDAFPEDFCRHKVLPQLLTAFEFGNAGAVVLTPLFKVGKFLSAEEYQQKIIPVVVKMFSSTDRAMRIRLLQQMEQFIQYLDEPTVNTQIFPHVVHGFLDTNPAIREQTVKSMLLLAPKLNEANLNVELMKHFARLQAKDEQGPIRCNTTVCLGKIGSYLSASTRHRVLTSAFSRATRDPFAPSRVAGVLGFAATHNLYSMNDCAQKILPVLCGLTVDPEKSVRDQAFKAIRSFLSKLESVSEDPTQLEEVEKDVHAASSPGMGGAAASWAGWAVTGVSSLTSKLIRSHPTTAPTETNIPQRPTPEGVPAPAPTPVPATPTTSGHWETQEEDKDTAEDSSTADRWDDEDWGSLEQEAESVLAQQDDWSTGGQVSRASQVSNSDHKSSKSPESDWSSWEAEGSWEQGWQEPSSQEPPPDGTRLASEYNWGGPESSDKGDPFATLSARPSTQPRPDSWGEDNWEGLETDSRQVKAELARKKREERRREMEAKRAERKVAKGPMKLGARKLD |
| – | – | binds | amphiphysin (brain extract) (protein, UniProt O08838 1-683) MADIKTGIFAKNVQKRLNRAQEKVLQKLGKADETKDEQFEEYVQNFKRQEAEGTRLQRELRGYLAAIKGMQEASMKLTESLHEVYEPDWYGREDVKMVGEKCDVLWEDFHQKLVDGSLLTLDTYLGQFPDIKNRIAKRSRKLVDYDSARHHLEALQSSKRKDESRISKAEEEFQKAQKVFEEFNVDLQEELPSLWSRRVGFYVNTFKNVSSLEAKFHKEIAVLCHKLYEVMTKLGDQHADKAFSIQGAPSDSGPLRIAKTPSPPEEASPLPSPTASPNHTLAPASPAPVRPRSPSQTRKGPPVPPLPKVTPTKELQQENIINFFEDNFVPEINVTTPSQNEVLEVKKEETLLDLDFDPFKPDVTPAGSAAATHSPMSQTLPWDLWTTSTDLVQPASGGSFNDFTQPQDTSLFTMQTDQNMAETEQALPTEPQAEEPPTTAAAPTAGLDLGLEMEEPKEEAAIPPGTDAGETVGTEGSTGEEAEAEKAALPAGEGESPEGAKIDVESTELASSESPQAAELEAGAPQEKVIPSVVIEPASNHEGEEHQETTTGTETREATEDVAPQGPAGEKQELATEPTPLDSQAATPAPAGAVDASLSAGDAAQELPPGFLYKVETLHDFEAANSDELTLQRGDVVLVVPSDSEADQDAGWLVGVKESDWLQYRDLATYKGLFPENFTRHLE |
| – | – | binds | AP180 (brain extract) (protein, UniProt Q05140 1-915) MSGQTLTDRIAAAQYSVTGSAVARAVCKATTHEVMGPKKKHLDYLIQATNETNVNIPQMADTLFERATNSSWVVVFKALVTTHHLMVHGNERFIQYLASRNTLFNLSNFLDKSGSHGYDMSTFIRRYSRYLNEKAFSYRQMAFDFARVKKGADGVMRTMVPEKLLKSMPILQGQIDALLEFDVHPNELTNGVINAAFMLLFKDLIKLFACYNDGVINLLEKFFEMKKGQCKDALEIYKRFLTRMTRVSEFLKVADEVGIDKGDIPDLTQAPSSLMETLEQHLNTLEGKKPGNNEGSGAPSPLSKSSPATTVTSPNSTPAKTIDTSPPVDIFATASAAAPVSSAKPSSDLLDLQPDFSGARAGAAAPVPPPTGGATAWGDLLGEDSLAALSSVPSEAPISDPFAPEPSPPTTTTEPASASASATTAVTAATTEVDLFGDAFAASPGEAPAASEGATAPATPAPVAAALDACSGNDPFAPSEGSAEAAPELDLFAMKPPETSAPVVTPTASTAPPVPATAPSPAPTAVAATAATTTAAAAATTTATTSAAAATTAAAPPALDIFGDLFDSAPEVAAASKPDVAPSIDLFGTDAFSSPPRGASPVPESSLTADLLSGSGFHCAEDDRHVPLFFTAVDAFAAPSPASTASPAKAESSGVIDLFGDAFGSSASETQPAPQAVSSSSASADLLAGFGGSFMAPSTTPVTPAQNNLLQPNFEAAFGTTPSTSSSSSFDPSGDLLMPTMAPSGQPAPVSMVPPSPAMSASKGLGSDLDSSLASLVGNLGISGTTSKKGDLQWNAGEKKLTGGANWQPKVTPATWSAGVPPQGTVPPTSSVPPGAGAPSVGQPGAGYGMPPAGTGMTMMPQQPVMFAQPMMRPPFGAAAVPGTQLSPSPTPATQSPKKPPAKDPLADLNIKDFL |
| – | binds | – | CALM (protein, UniProt Q13492 1-652) MSGQSLTDRITAAQHSVTGSAVSKTVCKATTHEIMGPKKKHLDYLIQCTNEMNVNIPQLADSLFERTTNSSWVVVFKSLITTHHLMVYGNERFIQYLASRNTLFNLSNFLDKSGLQGYDMSTFIRRYSRYLNEKAVSYRQVAFDFTKVKRGADGVMRTMNTEKLLKTVPIIQNQMDALLDFNVNSNELTNGVINAAFMLLFKDAIRLFAAYNEGIINLLEKYFDMKKNQCKEGLDIYKKFLTRMTRISEFLKVAEQVGIDRGDIPDLSQAPSSLLDALEQHLASLEGKKIKDSTAASRATTLSNAVSSLASTGLSLTKVDEREKQAALEEEQARLKALKEQRLKELAKKPHTSLTTAASPVSTSAGGIMTAPAIDIFSTPSSSNSTSKLPNDLLDLQQPTFHPSVHPMSTASQVASTWGDPFSATVDAVDDAIPSLNPFLTKSSGDVHLSISSDVSTFTTRTPTHEMFVGFTPSPVAQPHPSAGLNVDFESVFGNKSTNVIVDSGGFDELGGLLKPTVASQNQNLPVAKLPPSKLVSDDLDSSLANLVGNLGIGNGTTKNDVNWSQPGEKKLTGGSNWQPKVAPTTAWNAATMAPPVMAYPATTPTGMIGYGIPPQMGSVPVMTQPTLIYSQPVMRPPNPFGPVSGAQIQFM |
